{"source": "PubChem BioAssay AID1347075", "about": "(National Center for Advancing Translational Sciences (NCATS), 2019)", "note": "About 5,500 (1.4%) of roughly 400,000 compounds were called active. The shares of active, inactive and inconclusive entries below differ from those in the screen. Calls come from the whole dose curve; as a rule, active = well fitted cell-killing curve with a large enough effect; inconclusive = small, poorly fitted or top-dose-only effect, or effect the other way; inactive = flat fitted curve, though single readings scatter. Potencies of inconclusive entries are doubtful fits and often do not repeat. % is set by controls: 0 for no effect and ±100 for the full control effect; potency is the fitted concentration of half-maximal effect.", "data": [{"experiment": "qHTS assay for MDR1-selective chemotherapeutics: Primary screen using the parental adenocarcinoma cell KB-3-1; note: nearly all actives have a fitted effect of over 60% in size", "conditions": "KB-3-1 viability, CellTiter-Glo ATP luminescence, 72 h; activity change, negative = cytotoxic: at 46.1 µM (top of the series)", "method_in_brief": "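Multi-concentration cytotoxicity screen in KB-3-1 cells grown in DMEM lacking phenol red with 10% FBS. After 72 h at 37 °C with compound, ATP-dependent luminescence was recorded.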", "values": [{"smiles": "O=C(N/N=C/c1ccccc1O)NC12CC3CC(CC(C3)C1)C2", "Potency": "inactive"}, {"smiles": "Cc1ccc(NC(=O)c2cc(S(=O)(=O)N3CCOCC3)c(Cl)cc2Cl)cc1", "Potency": "inconclusive: 20.6 µM [cytotoxic, single point]"}, {"smiles": "COc1ccc(NC(=O)c2cc3ccccc3cc2OC)cc1", "Potency": "inconclusive: 25.9 µM [cytotoxic, partial curve, poor fit]"}, {"smiles": "COc1cccc(OCc2cc(C(=O)N3CCC(c4ccncc4)CC3)no2)c1", "Potency": "inconclusive: 1.84 µM [cytotoxic, full curve]"}, {"smiles": "CCCCC(CC)COC(=O)C(C#N)=C(c1ccccc1)c1ccccc1", "note": "(configuration not stated)", "Potency": "inactive"}, {"smiles": "O=C(CNC(=O)c1ccccc1F)OCc1nc2ccc(Cl)cc2n1CCO", "Potency": "inactive"}, {"smiles": "COc1ccc2cc(C(c3nnnn3C(C)(C)C)N3CCSCC3)c(=O)[nH]c2c1", "note": "(configuration not stated)", "Potency": "inactive"}, {"smiles": "CNc1cccc(S(=O)(=O)N2CCCN(S(=O)(=O)c3ccc4c(c3)OCCO4)CC2)c1", "Potency": "inactive"}, {"smiles": "Nc1nn(-c2ccccc2)c(N)c1N=Nc1ccccc1F", "Potency": "inconclusive: 2.31 µM [cytotoxic, partial curve, poor fit]"}, {"smiles": "c1ccc(-c2cn(-c3ccccc3)c3ncnc(N4CCCCC4)c23)cc1", "Potency": "inactive"}, {"smiles": "C=CCn1c(-c2cc(OC)c(OC)c(OC)c2)n[nH]c1=S", "Potency": "inactive"}, {"smiles": "Cc1ccc2c(c1)c1c3n2CC(=C2C(=O)OC(C)(C)OC2=O)NC3CCC1", "note": "(configuration not stated)", "Potency": "inactive"}, {"smiles": "Cc1noc(-c2ccccc2OCC(=O)Nc2cccc([N+](=O)[O-])c2)n1", "Potency": "inactive"}, {"smiles": "Cc1ccccc1NC(=O)CC1C(=O)NCCN1C(=O)c1cccc(Cl)c1", "note": "(configuration not stated)", "Potency": "inactive"}, {"smiles": "Cc1ccc(S(=O)(=O)Nc2ccccc2NS(=O)(=O)c2ccc(C)cc2)cc1", "Potency": "inconclusive: 18.4 µM [cytotoxic, single point]"}, {"smiles": "COc1ccc(-c2nc(NC(=O)c3ccc(OCC(=O)N4CCOCC4)c(OC)c3)sc2C)cc1", "Potency": "inconclusive: 16.4 µM [cytotoxic, single point]"}, {"smiles": "COc1cc(/C=C(\\C#N)c2[nH]nc(N)c2C#N)cc(OC)c1O", "Potency": "inconclusive: 29.1 µM [cytotoxic, single point]"}, {"smiles": "COC(=O)c1sc(NC(=S)NC(=O)c2ccccc2F)nc1C", "Potency": "inconclusive: 0.411 µM [rising, full curve]"}, {"smiles": "COc1ccc(CN(C(C)=O)c2ccccc2C(=O)O)cc1", "Potency": "inactive"}, {"smiles": "Clc1ccc(-c2csc(=Nc3cccnc3)n2CCCn2ccnc2)cc1Cl", "Potency": "active: 14.6 µM"}, {"smiles": "CCc1ccc2[nH]c(=O)c(C(c3nnnn3Cc3ccco3)N3CCC(C)CC3)cc2c1", "note": "(configuration not stated)", "Potency": "inconclusive: 29.1 µM [cytotoxic, single point]"}, {"smiles": "COc1ccc(N2CCN(C(=O)CCS(=O)(=O)c3cc4c(cc3Cl)NC(=O)CO4)CC2)cc1", "Potency": "inactive"}, {"smiles": "Cc1cc(C(=O)Nc2ccccc2Cl)n(-c2ccccc2)n1", "Potency": "inactive"}, {"smiles": "NNC(=O)CNC(c1ccccc1)c1cc(Br)ccc1NC(=O)c1cccc(Cl)c1", "note": "(configuration not stated)", "Potency": "inactive"}, {"smiles": "O=C(CCl)N1CCN(S(=O)(=O)c2ccc3ccccc3c2)CC1", "Potency": "inconclusive: 29.1 µM [cytotoxic, single point]"}, {"smiles": "COCCn1c(C)cc(C(=O)COc2ncnc3ccc(Br)cc23)c1C", "Potency": "inconclusive: 18.4 µM [rising, single point]"}, {"smiles": "CCN1c2ccccc2-c2nc(SCC(=O)Nc3ccc(C)c(Cl)c3)ncc2S1(=O)=O", "Potency": "inactive"}, {"smiles": "Cc1nc2ccc(NC(=O)c3cccc(C(F)(F)F)c3)cc2o1", "Potency": "inconclusive: 16.4 µM [cytotoxic, single point]"}, {"smiles": "Cc1ccc2c(c1)[nH]c1c(N3CCN(Cc4ccccc4)CC3)ncnc12", "Potency": "inconclusive: 29.1 µM [cytotoxic, single point]"}, {"smiles": "CCOC(=O)c1noc2ncnc(N3CCN(c4ccccc4OC)CC3)c12", "Potency": "inconclusive: 29.1 µM [cytotoxic, single point]"}, {"smiles": "CCCCn1c(-c2nonc2N)nc2ccccc21", "Potency": "inconclusive: 32.6 µM [cytotoxic, single point]"}, {"smiles": "CCOCCCNC(=O)c1ccc2c(c1)N=C(CC)c1cc(Br)ccc1S2", "Potency": "active: 1.03 µM"}, {"smiles": "O=C(Cc1c(F)c(F)c(F)c(F)c1F)Nc1nc(-c2ccccc2)cs1", "Potency": "inconclusive: 29.1 µM [cytotoxic, single point]"}, {"smiles": "Cc1ccc([C@H]2C[C@H](O)[C@@H](n3cc(C4CC4)nn3)CN2C(=O)c2cccs2)cc1", "Potency": "inactive"}, {"smiles": "COCC(C)n1c(C)cc(C(=O)CSc2nnc(-c3ccco3)o2)c1C", "note": "(configuration not stated)", "Potency": "inconclusive: 32.6 µM [rising, single point]"}, {"smiles": "O=C(c1cc2ccccc2o1)N(Cc1ccco1)Cc1cccs1", "Potency": "inactive"}, {"smiles": "Cc1nc2c(S(=O)(=O)c3ccccc3)cnn2c(C)c1C", "Potency": "inconclusive: 0.411 µM [rising, full curve, poor fit]"}, {"smiles": "CC(=O)CSc1cc(C)nc2c(-c3ccccc3)c(C)nn12", "Potency": "inconclusive: 23.1 µM [cytotoxic, single point]"}, {"smiles": "c1coc(CNc2nc(N3CCCCC3)nc3ccccc23)c1", "Potency": "inconclusive: 29.1 µM [cytotoxic, single point]"}, {"smiles": "CN(C)c1ccc(/C=C/c2ccc3c4ccccc4ccc3[n+]2-c2ccccc2)cc1", "Potency": "active: 0.291 µM"}, {"smiles": "Cc1ccc2cc(CN(Cc3ccco3)C(=S)NCC3CCCO3)c(=O)[nH]c2c1", "note": "(configuration not stated)", "Potency": "inactive"}, {"smiles": "COCCOC1CCN(C(=O)C2CCC(=O)N(Cc3cccc(F)c3)C2)CC1", "note": "(configuration not stated)", "Potency": "inactive"}, {"smiles": "CC1CCN(c2c(NCc3ccc(C(=O)N4CCc5ccccc54)cc3)c(=O)c2=O)CC1", "Potency": "active: 1.64 µM"}, {"smiles": "CCc1nnc(NC(=O)C2CCN(c3ncnc4sc(C)c(C)c34)CC2)s1", "Potency": "inactive"}, {"smiles": "CN(c1cccc(NC(=O)CN(c2ccc(C34CC5CC(CC(C5)C3)C4)cc2)S(C)(=O)=O)c1)S(C)(=O)=O", "Potency": "inconclusive: 20.6 µM [cytotoxic, single point]"}, {"smiles": "COc1ccc(OC)c(/C=C/C(=O)OCC(=O)Nc2ccc3c(c2)OCCO3)c1", "Potency": "inconclusive: 18.4 µM [cytotoxic, single point]"}, {"smiles": "CCOC(=O)c1c(NC(=O)CSc2nnc(-c3ccccc3)o2)sc(C(C)=O)c1C", "Potency": "inactive"}, {"smiles": "COc1cc(C(=O)NNC(=S)NC(=O)c2ccccc2C)cc(OC)c1OC", "Potency": "inconclusive: 16.4 µM [cytotoxic, single point]"}, {"smiles": "CCOc1ccc(-n2c(C)cc(C(=O)CCl)c2C)cc1", "Potency": "active: 4.61 µM"}, {"smiles": "CCCc1nc2ccccc2c(C(=O)OCC(=O)N2CCc3ccccc32)c1CC", "Potency": "inconclusive: 29.1 µM [cytotoxic, single point]"}, {"smiles": "O=C(NCc1ccccc1F)C1CCCN1S(=O)(=O)c1ccc(Cl)cc1", "note": "(configuration not stated)", "Potency": "inactive"}, {"smiles": "COc1ccc(OC)c(C(=O)c2ccc(C(=O)c3cc(OC)ccc3OC)cc2)c1", "Potency": "inactive"}, {"smiles": "O=C(NCCCNC(=O)c1ccccn1)c1cccc(F)c1", "Potency": "inconclusive: 0.0092 µM [rising, full curve, poor fit]"}, {"smiles": "N#Cc1cc(Oc2cccc3cccnc23)c(-n2nnc3ccccc32)cc1C#N", "Potency": "inconclusive: 35.5 µM [cytotoxic, single point]"}, {"smiles": "COC(=O)c1[nH]c2ccccc2c1Sc1ccccc1", "Potency": "inconclusive: 29.1 µM [cytotoxic, single point]"}, {"smiles": "N#CC1=C(N)Oc2c(O)cc3ccccc3c2C1c1ccsc1", "note": "(configuration not stated)", "Potency": "inconclusive: 23.1 µM [cytotoxic, partial curve, poor fit]"}, {"smiles": "COCCNC(=S)N1CCc2cc(OC)c(OC)cc2C1COc1cc(C)cc(C)c1", "note": "(configuration not stated)", "Potency": "inconclusive: 32.6 µM [cytotoxic, single point]"}, {"smiles": "CC1Sc2ccc(S(=O)(=O)N3CCC(C(=O)NCc4ccc(Cl)cc4)CC3)cc2NC1=O", "note": "(configuration not stated)", "Potency": "inconclusive: 11.6 µM [cytotoxic, partial curve, poor fit]"}, {"smiles": "CCCNC(=O)C1(C)CCCN(Cc2csc(-c3ccccc3)n2)C1", "note": "(configuration not stated)", "Potency": "inconclusive: 29.1 µM [cytotoxic, single point]"}, {"smiles": "CN1CC(c2ccccc2)C2(SC(=S)N(Cc3ccco3)C2=O)C12C(=O)Nc1ccccc12", "note": "(configuration not stated)", "Potency": "active: 20.6 µM"}, {"smiles": "COc1ccccc1C1c2ccc3ccccc3c2Oc2ncn(CCN(C)C)c(=N)c21", "note": "(configuration not stated)", "Potency": "inconclusive: 18.4 µM [cytotoxic, single point]"}, {"smiles": "Cc1cccc(NC(=O)CSc2nc3[nH]c(=O)cc(O)c3s2)c1", "Potency": "inconclusive: 29.1 µM [cytotoxic, single point]"}, {"smiles": "CNc1ccccc1C(=O)OCC(=O)c1ccccc1", "Potency": "inconclusive: 20.6 µM [rising, partial curve, poor fit]"}, {"smiles": "Cc1c(N=C/C=C2/N(C)c3ccccc3C2(C)C)c(=O)n(-c2ccccc2)n1C", "Potency": "inactive"}, {"smiles": "C=CC[C@H](CC(=O)NCCO)C(=O)N[C@H](COC(=O)[C@@H](CC=C)Cc1ccc(F)cc1)Cc1ccccc1", "Potency": "inactive"}, {"smiles": "COc1ccc(Nc2cc(=O)oc3ccccc23)cc1", "Potency": "active: 4.11 µM"}, {"smiles": "CC1CC(C)CN(S(=O)(=O)c2ccc(Oc3ccc([N+](=O)[O-])cc3)cc2)C1", "note": "(configuration not stated)", "Potency": "inconclusive: 23.1 µM [cytotoxic, single point]"}, {"smiles": "O=C(C1COc2ccccc2O1)N1CCN(c2ccc([N+](=O)[O-])cc2)CC1", "note": "(configuration not stated)", "Potency": "inconclusive: 29.1 µM [cytotoxic, single point]"}, {"smiles": "N=C1/C(=C/c2cccn2-c2ccc([N+](=O)[O-])cc2)C(=O)N=C2SC=CN12", "activity change, negative = cytotoxic": "inconclusive: -105%"}, {"smiles": "COc1ccc(-c2csc(NC(C)c3nc4cc(C(F)(F)F)ccc4n3CCOCCO)n2)cc1", "note": "(configuration not stated)", "Potency": "inconclusive: 29.1 µM [cytotoxic, single point]"}, {"smiles": "Cc1cccc(NC(=O)c2ccc(S(=O)(=O)N3CCCCC3C)cc2)n1", "note": "(configuration not stated)", "Potency": "inconclusive: 20.6 µM [cytotoxic, single point]"}, {"smiles": "COc1ccc(CCn2c(C)cc(C(=O)CN3C(=O)C(=O)N(Cc4ccco4)C3=O)c2C)cc1", "Potency": "active: 5.8 µM"}]}]}
